# Results from PubChem BioAssay AID1671190 (National Center for Advancing Translational Sciences (NCATS), 2021).
# The chains behind the UniProt entries cited, without tags or fusion partners. Where a name states a change or a piece, a line headed by the entry shows the natural chain unless it says otherwise.
# UniProt P18054: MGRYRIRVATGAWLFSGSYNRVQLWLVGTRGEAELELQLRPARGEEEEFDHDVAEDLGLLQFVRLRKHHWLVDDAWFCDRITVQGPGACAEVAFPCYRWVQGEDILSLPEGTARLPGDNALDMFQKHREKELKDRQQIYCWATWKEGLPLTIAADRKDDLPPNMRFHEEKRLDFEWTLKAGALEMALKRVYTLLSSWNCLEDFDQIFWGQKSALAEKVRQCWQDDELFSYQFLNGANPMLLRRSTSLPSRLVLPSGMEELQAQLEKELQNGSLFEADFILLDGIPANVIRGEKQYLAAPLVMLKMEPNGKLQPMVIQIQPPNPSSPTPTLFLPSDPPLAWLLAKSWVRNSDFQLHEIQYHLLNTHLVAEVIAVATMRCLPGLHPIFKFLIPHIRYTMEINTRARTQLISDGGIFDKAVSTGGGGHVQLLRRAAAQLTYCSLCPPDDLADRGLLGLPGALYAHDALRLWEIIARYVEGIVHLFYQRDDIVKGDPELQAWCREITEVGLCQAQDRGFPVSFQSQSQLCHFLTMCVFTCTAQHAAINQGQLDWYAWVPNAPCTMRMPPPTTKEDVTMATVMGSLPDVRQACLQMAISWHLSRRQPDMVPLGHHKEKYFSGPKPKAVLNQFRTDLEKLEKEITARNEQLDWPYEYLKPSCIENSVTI
# Hit rate of the full screen: of about 580,000 compounds, about 6,100 (1.1%) were called active. The shares of active, inactive and inconclusive entries below differ from those in the screen. Calls follow the shape of the dose curve; as a rule, active = well fitted inhibition curve with a large enough effect; inconclusive = small, poorly fitted or top-dose-only effect, or another doubt; inactive = no such curve, though single readings can be large or run the other way. A potency beside an inconclusive call is a rough fit, not a confirmed value.
# Molecular target: Polyunsaturated fatty acid lipoxygenase ALOX12 (Homo sapiens) (UniProt P18054)
# Test: Primary qHTS assay for inhibitors of human arachidonate 12S-lipoxygenase (ALOX12): Round 2
# Conditions: purified 12hLO, xylenol orange hydroperoxide absorbance; activity change, negative = inhibition: at 108 µM (top of the series) unless noted
# Summary of the method: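 Hydroperoxide product was detected by ferrous iron/xylenol orange as the 573 to 405 nm absorbance ratio. Arachidonic acid at 40 uM (final) was turned over for 30 min at room temperature by 150 nM human 12hLO, pH 7.0 Hepes buffer, after 15 min compound preincubation.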
# % is scaled to controls: 0 for no effect and ±100 for the full control effect; potency is read from the fitted curve at half-maximal effect.
Structure (SMILES),"activity change, negative = inhibition",Potency
Cc1cc(C(=O)COC(=O)c2nccnc2N)c(C)n1CC(F)(F)F,inactive: -23.7%,–
CCn1c(=O)c2c3c(sc2n2c(=S)[nH]nc12)CCC3,–,"inconclusive: 31.6 µM [inhibitor, partial curve, poor fit]"
O=C(NCCN1C(=O)S/C(=C\c2ccc(Cl)cc2)C1=O)c1ccc(F)c(S(=O)(=O)N2CCOCC2)c1,–,"inconclusive: 50.1 µM [inhibitor, partial curve, poor fit]"
CN(C)c1ncc2nc(-c3cc(F)cc(F)c3)c(=O)n(C3CC3)c2n1,–,"inconclusive: 31.6 µM [inhibitor, single point]"
Cc1ccc(N=Nc2cc(C)ccc2N)cc1,–,"inconclusive: 79.4 µM [inhibitor, single point]"
CCC(CC)N1CCN(C(=O)c2cc(OC)c(OC)c(OC)c2)CC1,–,"inconclusive: 0.447 µM [inhibitor, full curve, poor fit]"
CC1CCN([C@@H]2[C@H](O)[C@H](CO)O[C@@H]2CNC(=O)c2ccccc2)CC1,inactive: 14.3% [at 176 µM],–
CNNC(=S)Nc1cccc(SC)c1,–,"inconclusive: 100 µM [inhibitor, single point]"
CCOc1ccc(C2/C(=C(\O)c3ccc4c(c3)OCCO4)C(=O)C(=O)N2CCCN2CCOCC2)cc1OC (centres undefined),–,"inconclusive: 4.47 µM [inhibitor, full curve, poor fit]"
Cc1ccc2c(C(=O)O)cc(-c3ccccn3)nc2c1C,–,"inconclusive: 22.4 µM [inhibitor, single point]"
Cc1ccc(C)c(/C(O)=C2\C(=O)C(=O)N(c3nnc(C)s3)C2c2ccc(Br)cc2)c1 (centres undefined),–,"inconclusive: 1.26 µM [inhibitor, full curve, poor fit]"
CCOC(=O)c1c(C)[nH]c(C)c1C(=O)COC(=O)c1cccc(C)c1O,–,"inconclusive: 126 µM [inhibitor, single point]"
COc1ccc(NC(=S)NCC(O)c2ccccc2)c(OC)c1 (centres undefined),–,"inconclusive: 7.08 µM [inhibitor, full curve, poor fit]"
CSc1ccc(CNC(=O)c2ccc3c(c2)N(C)C2CCCCCN2C3=O)cc1 (centres undefined),inactive: -3.06%,–
N#Cc1cccc(NC(=O)CCCNC(=O)C2CC2)c1,–,"inconclusive: 0.251 µM [inhibitor, full curve, poor fit]"
COc1ccc(C(NC(=O)c2sc(-c3ccsc3)nc2C)c2nccn2C)cc1 (centres undefined),–,"inconclusive: 22.4 µM [inhibitor, partial curve, poor fit]"
O=C(C1CCN(S(=O)(=O)c2ccc(Br)s2)CC1)N1CCN(c2cccc(Cl)c2)CC1,inactive: -23.8%,–
C#CCOc1ccc(C2C3=C(CC(C)(C)CC3=O)N(CC(=O)O)C3=C2C(=O)CC(C)(C)C3)cc1OC,–,"inconclusive: 0.794 µM [inhibitor, full curve, poor fit]"
COc1cc(NC(=O)c2ccc3c(c2)NC(=O)CS3)cc(OC)c1,–,"inconclusive: 7.94 µM [inhibitor, full curve, poor fit]"
CC(C)OC(=O)c1cc(-c2ccc(C=O)o2)ccc1Cl,–,"inconclusive: 3.16 µM [inhibitor, full curve, poor fit]"

Structure (SMILES),"activity change, negative = inhibition",Potency
Cc1occc1C(=O)N1CCN(S(=O)(=O)c2ccccc2)CC1,–,"inconclusive: 89.1 µM [inhibitor, single point]"
Cc1ccc(C)c(Sc2ccc(NC(=O)CCN3C(=O)NC4(CCCC4)C3=O)cc2)c1,–,"inconclusive: 89.1 µM [inhibitor, single point]"
O=C(O)c1cc(-c2cccc(Cl)c2)nc2nc(N3CCCCC3)sc12,–,"inconclusive: 12.6 µM [inhibitor, full curve, poor fit]"
Cc1ccc(NC(=O)c2ncoc2-c2ccco2)cc1,inconclusive: -34.3% [inhibitor],–
c1ccc(-c2nc(N3CCOCC3)nc3ccccc23)cc1,–,"inconclusive: 50.1 µM [inhibitor, full curve, poor fit]"
CCc1noc(C)c1C(=O)Nc1nc(-c2ccc(OC)cc2OC)cs1,–,"inconclusive: 100 µM [inhibitor, partial curve, poor fit]"
O=C(NCCCN1CCCC1)c1ccc(-c2ccccc2)cc1,–,"inconclusive: 100 µM [inhibitor, single point]"
CCOC(=O)c1c(NC(=O)c2ccc(S(=O)(=O)N3CCC(C)CC3)cc2)sc2c1CCN(C)C2,–,"inconclusive: 28.2 µM [inhibitor, partial curve, poor fit]"
C=CCOC(=O)C1=C[C@H](c2ccc3c(c2)OCO3)C[C@H](OCCCCO)O1,–,"inconclusive: 39.8 µM [inhibitor, partial curve]"
O=C(COC(=O)CCc1c[nH]c2ccccc12)NCC(F)(F)F,inactive: -5.91%,–
CC1CCN(S(=O)(=O)N2CCC(C(=O)c3ccc4c(c3)OCCO4)CC2)CC1,–,"inconclusive: 39.8 µM [inhibitor, partial curve]"
COc1ccccc1N1CCN(C2CCCC(C)C2)CC1 (centres undefined),–,"inconclusive: 17.8 µM [inhibitor, partial curve, poor fit]"
COc1ccc(N2CC(C)Cn3c2nc2c3c(=O)n(Cc3ccccc3)c(=O)n2C)c(OC)c1 (centres undefined),–,"inconclusive: 56.2 µM [inhibitor, partial curve, poor fit]"
C=CCN=C1NC(c2ccc(C(F)(F)F)cc2)C(C(=O)OC)=C(C)N1C (centres undefined),–,"inconclusive: 50.1 µM [inhibitor, partial curve, poor fit]"
Cc1ccc(C2NC(c3ccc(C)cc3)C(C)C(=NO)C2C)cc1 (centres undefined),–,"inconclusive: 1.78 µM [inhibitor, full curve, poor fit]"
CCOC(=O)c1sc2ncn(CC(=O)Nc3ccc(N(C)C)cc3)c(=O)c2c1C,–,"inconclusive: 50.1 µM [inhibitor, partial curve, poor fit]"
CCCCCCCCc1ccc(-c2ccc(C(=O)OC(C)C(=O)OC(C)C)cc2)cc1 (centres undefined),–,"inconclusive: 8.91 µM [inhibitor, full curve]"
COc1ccc(CCNC(=O)CN(c2cc(Cl)ccc2C)S(=O)(=O)c2ccccc2)cc1,inactive: 17%,–
O=C(c1ccsc1)N1CCCC(n2cc(-c3nc(C4CC4)no3)nn2)C1 (centres undefined),–,"inconclusive: 35.5 µM [inhibitor, partial curve, poor fit]"

# Pulled by compound from above:
Structure (SMILES),"activity change, negative = inhibition",Potency
O=C(COC(=O)CCc1c[nH]c2ccccc12)NCC(F)(F)F,inactive: -5.91%,–
CCOC(=O)c1c(NC(=O)c2ccc(S(=O)(=O)N3CCC(C)CC3)cc2)sc2c1CCN(C)C2,–,"inconclusive: 28.2 µM [inhibitor, partial curve, poor fit]"
